The source of these data is PMC7786974.

Chains of the proteins cited; added tags and fusions are not shown.
UniProt Q4JK59: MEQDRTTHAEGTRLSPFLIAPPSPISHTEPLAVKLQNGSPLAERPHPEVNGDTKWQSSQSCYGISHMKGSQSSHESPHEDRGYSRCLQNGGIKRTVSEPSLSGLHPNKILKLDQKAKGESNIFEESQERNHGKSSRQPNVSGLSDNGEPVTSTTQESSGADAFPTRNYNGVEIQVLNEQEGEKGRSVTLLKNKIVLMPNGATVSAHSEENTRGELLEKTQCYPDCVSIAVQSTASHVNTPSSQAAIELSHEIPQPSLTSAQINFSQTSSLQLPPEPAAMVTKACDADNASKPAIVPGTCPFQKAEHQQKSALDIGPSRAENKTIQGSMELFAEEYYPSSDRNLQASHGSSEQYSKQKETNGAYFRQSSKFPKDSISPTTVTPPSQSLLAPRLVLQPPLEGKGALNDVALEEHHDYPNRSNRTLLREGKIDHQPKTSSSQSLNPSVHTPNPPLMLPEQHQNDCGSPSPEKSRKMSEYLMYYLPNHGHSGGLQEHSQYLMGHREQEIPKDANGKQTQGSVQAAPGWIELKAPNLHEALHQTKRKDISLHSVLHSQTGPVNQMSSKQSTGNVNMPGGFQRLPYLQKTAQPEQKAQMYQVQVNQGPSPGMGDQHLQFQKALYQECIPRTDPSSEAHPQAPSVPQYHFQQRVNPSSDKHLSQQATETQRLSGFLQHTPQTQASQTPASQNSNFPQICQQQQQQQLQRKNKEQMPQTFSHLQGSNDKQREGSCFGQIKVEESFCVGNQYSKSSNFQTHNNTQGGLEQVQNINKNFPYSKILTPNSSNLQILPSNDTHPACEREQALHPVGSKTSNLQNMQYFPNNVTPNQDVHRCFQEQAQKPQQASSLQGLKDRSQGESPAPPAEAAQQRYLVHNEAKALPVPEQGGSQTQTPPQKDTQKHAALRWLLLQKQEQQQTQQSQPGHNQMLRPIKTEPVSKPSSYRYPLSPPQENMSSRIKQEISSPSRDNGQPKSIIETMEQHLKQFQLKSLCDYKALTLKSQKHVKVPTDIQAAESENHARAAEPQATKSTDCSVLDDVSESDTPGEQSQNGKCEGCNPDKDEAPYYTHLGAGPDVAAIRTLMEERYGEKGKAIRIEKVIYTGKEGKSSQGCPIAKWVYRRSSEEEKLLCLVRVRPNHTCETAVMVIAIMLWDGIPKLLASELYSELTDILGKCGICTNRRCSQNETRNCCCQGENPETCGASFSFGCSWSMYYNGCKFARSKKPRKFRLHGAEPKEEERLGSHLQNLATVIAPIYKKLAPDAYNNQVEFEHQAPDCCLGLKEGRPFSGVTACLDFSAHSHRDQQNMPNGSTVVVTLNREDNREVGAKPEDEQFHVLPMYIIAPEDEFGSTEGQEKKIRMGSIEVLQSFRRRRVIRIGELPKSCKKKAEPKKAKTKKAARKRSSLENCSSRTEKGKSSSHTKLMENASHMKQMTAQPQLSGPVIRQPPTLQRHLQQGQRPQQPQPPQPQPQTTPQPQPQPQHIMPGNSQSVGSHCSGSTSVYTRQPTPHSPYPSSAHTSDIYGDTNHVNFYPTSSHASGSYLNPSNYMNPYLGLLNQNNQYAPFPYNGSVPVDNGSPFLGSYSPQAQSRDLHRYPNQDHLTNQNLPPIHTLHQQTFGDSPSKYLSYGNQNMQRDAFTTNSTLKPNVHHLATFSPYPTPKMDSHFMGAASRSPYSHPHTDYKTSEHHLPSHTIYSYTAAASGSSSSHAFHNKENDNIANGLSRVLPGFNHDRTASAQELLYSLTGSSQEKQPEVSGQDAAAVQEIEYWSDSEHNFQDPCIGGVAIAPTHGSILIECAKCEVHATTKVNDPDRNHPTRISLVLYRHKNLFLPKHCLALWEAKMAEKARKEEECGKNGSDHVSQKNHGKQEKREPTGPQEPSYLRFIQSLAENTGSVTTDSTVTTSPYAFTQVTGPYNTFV
UniProt Q04207: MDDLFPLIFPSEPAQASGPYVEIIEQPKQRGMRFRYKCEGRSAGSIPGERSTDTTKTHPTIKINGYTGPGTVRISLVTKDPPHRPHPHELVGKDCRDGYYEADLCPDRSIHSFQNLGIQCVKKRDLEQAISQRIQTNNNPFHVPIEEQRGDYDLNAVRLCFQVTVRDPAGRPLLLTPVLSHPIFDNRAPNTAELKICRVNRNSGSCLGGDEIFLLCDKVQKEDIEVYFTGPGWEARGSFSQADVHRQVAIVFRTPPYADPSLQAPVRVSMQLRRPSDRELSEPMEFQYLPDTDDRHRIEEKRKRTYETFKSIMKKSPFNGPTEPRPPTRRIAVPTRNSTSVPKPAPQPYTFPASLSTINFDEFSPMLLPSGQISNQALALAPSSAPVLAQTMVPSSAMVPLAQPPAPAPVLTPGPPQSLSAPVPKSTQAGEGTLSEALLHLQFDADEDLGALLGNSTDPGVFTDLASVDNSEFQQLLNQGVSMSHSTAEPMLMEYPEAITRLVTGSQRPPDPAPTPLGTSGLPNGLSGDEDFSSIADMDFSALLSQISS

No constants are given. Whether binding was seen depends on the method and setting. In cells and extracts the contact can be indirect. Some results given as binding are weak or reduced against the parent protein; the word gives no strength.

The test concerns the target ten eleven translocation (TET) methylcytosine dioxygenase 2 (mouse (endogenous in mouse pup brain)) (UniProt Q4JK59). Kind of test: co-IP; Pierce co-IP kit; rabbit anti-TET2 antibody immobilised on AminoLink Plus coupling resin, incubated with brain tissue lysate overnight; rabbit IgG as negative control; eluate probed by Western blot; mouse pups, sham and HI (brain collected 12 h after HI). Background: Immunoblotting shows a protein as a band on a membrane.

As for “NF-κB subunit p65 (from UniProt Q04207 1-549)”, the binding entry was “binds”.
